Results are given in words; binding and its absence hold for the method and conditions named.
Molecular target: T1, H2Av C-terminal tail peptide, unphosphorylated (Drosophila melanogaster)
T1 sequence (peptide, biotin on the N-terminus): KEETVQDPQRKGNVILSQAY
Assay: pull-down; N-terminally biotinylated H2Av peptides (phosphorylated or unphosphorylated) on streptavidin agarose beads, incubated with bacterially expressed and purified GST, GST-FHA or GST-BRCT of MU2; Coomassie-stained SDS-PAGE, bands identified by mass spectrometry; according to Stucki et al.; both purified

Row | Substance | binding
1 | GST-BRCT domain of MU2 (C-terminal domain, aa 1019-1259 of MU2-PB) (Drosophila melanogaster) (domain or fragment) | no binding
2 | GST-FHA domain of MU2 (N-terminal domain, aa 1-250 of MU2-PB) (Drosophila melanogaster) (domain or fragment) | no binding

— paper PMC2672170
